This is an account of results in publication PMC7725823.

Amino acid sequences for entries named in this document (tags omitted). Residues count along the entry.
UniProt Q9BXY8: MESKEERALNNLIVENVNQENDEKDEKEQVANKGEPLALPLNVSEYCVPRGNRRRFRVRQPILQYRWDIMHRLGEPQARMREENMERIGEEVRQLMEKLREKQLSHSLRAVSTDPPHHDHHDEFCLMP
UniProt P63038, residues 27-573: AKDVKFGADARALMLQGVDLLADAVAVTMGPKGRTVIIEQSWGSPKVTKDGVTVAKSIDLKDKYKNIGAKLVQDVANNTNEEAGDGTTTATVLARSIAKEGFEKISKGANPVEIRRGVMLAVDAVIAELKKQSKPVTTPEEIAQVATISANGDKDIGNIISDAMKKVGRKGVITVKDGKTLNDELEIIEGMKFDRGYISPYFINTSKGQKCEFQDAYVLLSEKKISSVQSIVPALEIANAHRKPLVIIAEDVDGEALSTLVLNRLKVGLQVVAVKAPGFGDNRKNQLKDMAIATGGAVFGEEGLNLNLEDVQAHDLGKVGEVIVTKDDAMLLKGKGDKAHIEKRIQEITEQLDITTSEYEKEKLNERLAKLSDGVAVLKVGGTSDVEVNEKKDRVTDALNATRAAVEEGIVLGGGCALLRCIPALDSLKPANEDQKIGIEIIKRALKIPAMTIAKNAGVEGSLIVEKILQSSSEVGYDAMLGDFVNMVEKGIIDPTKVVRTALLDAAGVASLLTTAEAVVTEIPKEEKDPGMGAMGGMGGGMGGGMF
UniProt P10809, residues 27-573: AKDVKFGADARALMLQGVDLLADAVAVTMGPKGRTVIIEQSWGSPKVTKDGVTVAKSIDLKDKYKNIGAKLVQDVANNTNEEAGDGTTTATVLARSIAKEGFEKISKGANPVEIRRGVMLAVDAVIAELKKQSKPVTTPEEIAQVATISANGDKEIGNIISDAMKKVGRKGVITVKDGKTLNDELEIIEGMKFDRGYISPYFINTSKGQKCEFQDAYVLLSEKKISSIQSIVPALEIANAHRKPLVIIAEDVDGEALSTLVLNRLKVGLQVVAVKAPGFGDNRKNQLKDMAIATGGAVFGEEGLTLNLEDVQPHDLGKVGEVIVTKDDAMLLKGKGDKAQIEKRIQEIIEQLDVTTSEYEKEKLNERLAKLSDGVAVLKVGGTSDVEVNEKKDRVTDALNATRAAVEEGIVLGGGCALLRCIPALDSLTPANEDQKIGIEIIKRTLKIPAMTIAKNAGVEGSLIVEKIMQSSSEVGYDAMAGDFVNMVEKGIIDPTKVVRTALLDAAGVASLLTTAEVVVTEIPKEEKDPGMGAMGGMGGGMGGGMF

Results are given in words; binding and its absence hold for the method and conditions named. Binding seen in cells or lysates may run through a third protein. These calls come from enrichment with a bait or labelling near it, and not all partners need be listed.

In the test the target is GST-BEX2 (human) (UniProt Q9BXY8). Put plainly: affinity purification with mass spectrometry; GST pull-down screen: GST-BEX2 on glutathione magnetic beads incubated with crude nuclear extracts (mouse kidney; HuCCT1 cells) for 12 h at 4 °C with Benzonase; wash 0.15 M NaCl, 0.1% NP-40, 50 mM HEPES pH 7.4; elution with 1.2 M NaCl; SDS-PAGE, silver stain, LC/MS; GST as control; only the target purified.

Consider “HSPD1 (mouse kidney) (from UniProt P63038 27-573)”, for which the binding result is given as “binds”.
Under HSPD1 (from UniProt P10809 27-573) stands “binds”.

B1: IVD (mouse kidney) (protein, UniProt Q9JHI5 31-424)
chain: HSILPVDDDINGLNEEQKQLRHTISKFLQENLAPKAQEIDQTNDFKNLREFWKQLGSLGVLGITAPVQYGGSGLGYLEHVLVMEEISRASGAVGLSYGAHSNLCVNQIVRNGNEAQKEKYLPKLISGEFIGALAMSEPNAGSDVVSMKLKAEKKGDHYVLNGNKFWITNGPDADILVVYAKTDLTAVPASRGITAFIVEKGMPGFSTSKKLDKLGMRGSNTCELVFEDCKVPAANVLSQESKGVYVLMSGLDLERLVLAGGPLGIMQAVLDHTIPYLHVREAFGQKIGQFQLMQGKMADMYTRLMASRQYVYNVAKACDEGHIIPKDCAGVILYAAECATQVALDGIQCLGGNGYINDFPMGRFLRDAKLYEIGAGTSEVRRLVIGRAFNADFR
Take B1: the binding entry is “binds”.

B2: IVD (protein, UniProt P26440 33-426)
chain: HSLLPVDDAINGLSEEQRQLRQTMAKFLQEHLAPKAQEIDRSNEFKNLREFWKQLGNLGVLGITAPVQYGGSGLGYLEHVLVMEEISRASGAVGLSYGAHSNLCINQLVRNGNEAQKEKYLPKLISGEYIGALAMSEPNAGSDVVSMKLKAEKKGNHYILNGNKFWITNGPDADVLIVYAKTDLAAVPASRGITAFIVEKGMPGFSTSKKLDKLGMRGSNTCELIFEDCKIPAANILGHENKGVYVLMSGLDLERLVLAGGPLGLMQAVLDHTIPYLHVREAFGQKIGHFQLMQGKMADMYTRLMACRQYVYNVAKACDEGHCTAKDCAGVILYSAECATQVALDGIQCFGGNGYINDFPMGRFLRDAKLYEIGAGTSEVRRLVIGRAFNADFH
For B2, the binding entry is given as “binds”.
